Residue numbers refer to the chain shown, from its start. Numbers in names are those of the source. These are yes or no findings as the source states them, for the method shown. Binding seen in cells or lysates may run through a third protein. Some entries that bind do so weakly or less than the wild type. Sequences can lack the tags named with a protein.

By UniProt entry, the sequences of proteins in these tests, tags left out. Where a name states a change or a piece, a line headed by the entry shows the natural chain unless it says otherwise.
UniProt P29469: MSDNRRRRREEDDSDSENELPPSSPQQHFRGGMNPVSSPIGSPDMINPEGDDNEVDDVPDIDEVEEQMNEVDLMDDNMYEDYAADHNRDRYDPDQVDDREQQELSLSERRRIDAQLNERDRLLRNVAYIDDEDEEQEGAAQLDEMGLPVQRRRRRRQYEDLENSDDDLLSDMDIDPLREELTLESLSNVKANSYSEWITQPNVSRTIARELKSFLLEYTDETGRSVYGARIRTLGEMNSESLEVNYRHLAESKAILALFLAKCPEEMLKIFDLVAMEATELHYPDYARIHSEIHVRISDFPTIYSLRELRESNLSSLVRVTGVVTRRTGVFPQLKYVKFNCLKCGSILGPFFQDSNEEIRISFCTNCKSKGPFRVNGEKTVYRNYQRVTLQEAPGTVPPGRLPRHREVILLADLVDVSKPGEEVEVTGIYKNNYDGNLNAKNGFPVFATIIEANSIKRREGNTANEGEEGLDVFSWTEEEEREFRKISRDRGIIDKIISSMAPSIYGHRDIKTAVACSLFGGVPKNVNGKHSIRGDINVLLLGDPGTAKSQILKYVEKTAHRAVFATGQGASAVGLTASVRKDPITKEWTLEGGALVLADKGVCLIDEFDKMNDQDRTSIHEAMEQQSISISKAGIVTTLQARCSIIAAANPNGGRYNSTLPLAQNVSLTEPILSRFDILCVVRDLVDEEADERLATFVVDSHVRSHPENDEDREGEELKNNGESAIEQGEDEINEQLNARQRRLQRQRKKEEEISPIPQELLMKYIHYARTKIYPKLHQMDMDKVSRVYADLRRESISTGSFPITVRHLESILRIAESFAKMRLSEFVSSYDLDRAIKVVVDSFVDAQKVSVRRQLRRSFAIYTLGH
UniProt P24279: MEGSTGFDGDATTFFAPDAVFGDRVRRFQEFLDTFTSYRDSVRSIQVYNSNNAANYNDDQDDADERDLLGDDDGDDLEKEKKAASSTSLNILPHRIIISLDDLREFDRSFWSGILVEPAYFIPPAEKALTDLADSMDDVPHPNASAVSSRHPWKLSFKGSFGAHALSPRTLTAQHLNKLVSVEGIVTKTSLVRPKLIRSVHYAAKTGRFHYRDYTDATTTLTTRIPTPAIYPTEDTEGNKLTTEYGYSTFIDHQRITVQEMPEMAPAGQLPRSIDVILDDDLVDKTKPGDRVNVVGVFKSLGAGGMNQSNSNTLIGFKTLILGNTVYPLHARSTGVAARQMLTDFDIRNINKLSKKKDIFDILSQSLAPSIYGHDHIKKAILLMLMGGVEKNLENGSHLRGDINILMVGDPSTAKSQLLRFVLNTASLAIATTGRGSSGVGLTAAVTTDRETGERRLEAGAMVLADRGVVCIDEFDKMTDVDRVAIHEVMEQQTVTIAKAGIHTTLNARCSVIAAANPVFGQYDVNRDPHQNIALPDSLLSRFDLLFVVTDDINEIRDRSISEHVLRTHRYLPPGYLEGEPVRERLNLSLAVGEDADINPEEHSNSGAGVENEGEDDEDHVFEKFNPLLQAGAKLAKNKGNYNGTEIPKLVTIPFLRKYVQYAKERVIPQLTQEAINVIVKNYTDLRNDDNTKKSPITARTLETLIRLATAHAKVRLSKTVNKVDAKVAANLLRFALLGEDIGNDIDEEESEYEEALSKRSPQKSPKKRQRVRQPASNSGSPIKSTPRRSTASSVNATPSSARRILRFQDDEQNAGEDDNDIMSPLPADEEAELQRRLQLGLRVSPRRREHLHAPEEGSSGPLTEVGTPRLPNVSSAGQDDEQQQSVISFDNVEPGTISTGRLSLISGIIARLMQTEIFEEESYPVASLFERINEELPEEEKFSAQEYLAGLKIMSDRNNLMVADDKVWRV

B1: GINS component of the CMG helicase (from PSF2-5FLAG cells) (complex, UniProt Q03406 1-294; Q12488 1-208; P40359 1-213; Q12146 1-194)
chain 1: MDINIDDILAELDKETTAVDSTKITQGSSSTTHRDANTIVGSSLDLNDKTQIYVSPQQDFSDLMKSWKNERCSPELLPYPHQLMKRLLNRISMQSQLIENISMGFLDMQNASNANPPMPNESKLPLLCMETELERLKFVIRSYIRCRLSKIDKFSLYLRQLNEDENSLISLTDLLSKDEIKYHDTHSLIWLKLVNDSILKYMPEELQAINDTEGSVNMIDEPDWNKFVFIHVNGPPDGKWNEDPLLQENEFGKPCYTVTIPDLKEEVELTIGSIYVMRYEVIRDLLRDDKVALI
chain 2: MYGDLGNKLVLEAKRTKQLYARSNQDVNLPMYHEDIIRNILKEVSNLRKNTEYLKEQQQLGMLDDKVAKCQYFVTLLCMERNKRCLLAYQRLRTDILDSMAWNNNGLDLMSSITFSQQDTNNLSHQEQEYLKEYCDLITDLKSGDLVDIDLSGSLVPPSDVFIDVRVLKDAGEIQTEYGVFNLIKDSQFFVRQSDVERLIQQGYLQKI
chain 3: MSLPAHLQQTFSPEEIQFIVENEPIKIFPRITTRQKIRGDDRGTGNHTRWQLITTDDKALNNMVAMRSTEVVLWIALLLKQQSKCSIVAPQWLTTKELDRKIQYEKTHPDRFSELPWNWLVLARILFNKAKDDFHDPIHELRGKIQDLREIRQIKVLKGLKYLNESHLQLDNLSLLEINELRPFITEIMDKLREIHTASLTAGTENDEEEFNI
chain 4: MGYYDIDDVLADGTEFPCKFQYDIPGLGYLENNPGRPITKNTKLSLPLWLARILAIVGGDEALVDEEPVPFVELLPPDMFSTKVMNAIKTDPVALDLHSINSHFFSLAIKWIMLFSEKELANVVSELLLQRAQELNHHASSLSIDLNADSTGKNSANTNIATSTFLLKLEEMEKEIYKKSHESYKDTKRWMFKK
B2: Cdc45 (protein, UniProt Q08032 1-650)
chain: MYYGISQFSEAYNKILRNSSSHSSCQLVIFVSCLNIDALCATKMLSLLFKKQLVQSQIVPIFGYSELRRHYSQLDDNINSLLLVGFGGVIDLEAFLEIDPQEYVIDTDEKSGEQSFRRDIYVLDAHRPWNLDNIFGSQIIQCFDDGTVDDTLGEQKEAYYKLLELDEESGDDELSGDENDNNGGDDEATDADEVTDEDEEDEDETISNKRGNSSIGPNDLSKRKQRKKQIHEYEGVLEEYYSQGTTVVNSISAQIYSLLSAIGETNLSNLWLNILGTTSLDIAYAQVYNRLYPLLQDEVKRLTPSSRNSVKTPDTLTLNIQPDYYLFLLRHSSLYDSFYYSNYVNAKLSLWNENGKKRLHKMFARMGIPLSTAQETWLYMDHSIKRELGIIFDKNLDRYGLQDIIRDGFVRTLGYRGSISASEFVEALTALLEVGNSTDKDSVKINNDNNDDTDGEEEEDNSAQKLTNLRKRWVSNFWLSWDALDDRKVELLNRGIQLAQDLQRAIFNTGVAILEKKLIKHLRIYRLCVLQDGPDLDLYRNPLTLLRLGNWLIECCAESEDKQLLPMVLASIDENTDTYLVAGLTPRYPRGLDTIHTKKPILNNFSMAFQQITAETDAKVRIDNFESSIIEIRREDLSPFLEKLTLSGLL
B3: Mcm7 subunit of CMG (protein, UniProt P38132 1-845)
chain: MSAALPSIQLPVDYNNLFNEITDFLVTFKQDTLSSDATRNENEDENLDAENIEQHLLEKGPKYMAMLQKVANRELNSVIIDLDDILQYQNEKFLQGTQADDLVSAIQQNANHFTELFCRAIDNNMPLPTKEIDYKDDVLDVILNQRRLRNERMLSDRTNEIRSENLMDTTMDPPSSMNDALREVVEDETELFPPNLTRRYFLYFKPLSQNCARRYRKKAISSKPLSVRQIKGDFLGQLITVRGIITRVSDVKPAVEVIAYTCDQCGYEVFQEVNSRTFTPLSECTSEECSQNQTKGQLFMSTRASKFSAFQECKIQELSQQVPVGHIPRSLNIHVNGTLVRSLSPGDIVDVTGIFLPAPYTGFKALKAGLLTETYLEAQFVRQHKKKFASFSLTSDVEERVMELITSGDVYNRLAKSIAPEIYGNLDVKKALLLLLVGGVDKRVGDGMKIRGDINVCLMGDPGVAKSQLLKAICKISPRGVYTTGKGSSGVGLTAAVMKDPVTDEMILEGGALVLADNGICCIDEFDKMDESDRTAIHEVMEQQTISISKAGINTTLNARTSILAAANPLYGRYNPRLSPLDNINLPAALLSRFDILFLMLDIPSRDDDEKLAEHVTYVHMHNKQPDLDFTPVEPSKMREYIAYAKTKRPVMSEAVNDYVVQAYIRLRQDSKREMDSKFSFGQATPRTLLGIIRLSQALAKLRLADMVDIDDVEEALRLVRVSKESLYQETNKSKEDESPTTKIFTIIKKMLQETGKNTLSYENIVKTVRLRGFTMLQLSNCIQEYSYLNVWHLINEGNTLKFVDDGTMDTDQEDSLVSTPKLAPQTTASANVSAQDSDIDLQDA
B4: Mcm7-K29A (protein, UniProt P38132 1-845)
chain: B3 chain with K29A
B5: Psf1 subunit of GINS (protein, UniProt Q12488 1-208)
chain: B1 chain 2

For one assay, the target named is T1, ProteinA-tagged Dia2 1–732 (full-length Dia2) (S. cerevisiae) (UniProt Q08496).
T1 sequence: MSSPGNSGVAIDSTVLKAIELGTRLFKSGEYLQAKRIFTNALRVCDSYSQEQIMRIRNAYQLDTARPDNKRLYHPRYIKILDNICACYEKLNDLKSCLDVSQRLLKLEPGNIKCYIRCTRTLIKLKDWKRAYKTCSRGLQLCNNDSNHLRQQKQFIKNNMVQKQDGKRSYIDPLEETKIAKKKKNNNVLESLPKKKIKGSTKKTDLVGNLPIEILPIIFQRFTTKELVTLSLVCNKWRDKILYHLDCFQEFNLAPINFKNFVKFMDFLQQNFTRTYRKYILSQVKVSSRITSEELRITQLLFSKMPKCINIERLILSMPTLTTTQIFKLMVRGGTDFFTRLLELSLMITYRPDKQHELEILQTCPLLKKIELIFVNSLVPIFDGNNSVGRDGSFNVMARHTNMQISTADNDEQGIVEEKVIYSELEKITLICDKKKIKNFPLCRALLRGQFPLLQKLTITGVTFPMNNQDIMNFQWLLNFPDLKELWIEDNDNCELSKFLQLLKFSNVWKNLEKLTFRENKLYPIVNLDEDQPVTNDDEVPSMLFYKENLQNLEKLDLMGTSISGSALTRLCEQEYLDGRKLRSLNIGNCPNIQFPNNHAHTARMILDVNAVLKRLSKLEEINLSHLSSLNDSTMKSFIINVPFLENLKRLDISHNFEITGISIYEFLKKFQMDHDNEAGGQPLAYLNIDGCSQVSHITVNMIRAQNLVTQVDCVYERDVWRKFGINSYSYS
Description: co-IP; ProteinA-tagged Dia2 isolated on IgG-coated magnetic beads from concentrated yeast cell extracts, 2 h; washed in 100 mM Tris-acetate pH 9.0, 100 mM potassium acetate, 10 mM magnesium acetate, 0.1% IGEPAL CA-630; bound proteins boiled off or released with TEV protease; immunoblotting.
For the molecule “Mcm2–7 components of CMG (from UniProt P29469 1-868; P24279 1-971; P30665 1-933; P29496 1-775; P53091 1-1017; P38132 1-845) (complex)”, the binding entry is listed as “binds”.
Take Mcm3 (from UniProt P24279 1-971): the binding entry is recorded as “binds”.
The same measure, in the same setting: the value for B1 was “binds”; that for B2 was “binds”.
On the same count and under the same terms, the value for B3 was “binds”; that for B4 was “binds”.

A further assay addresses T2, TAP-tagged Sld5 subunit of GINS (S. cerevisiae) (UniProt Q03406).
T2 sequence: B1 chain 1
In words: co-IP; TAP-Sld5 isolated on IgG-coupled magnetic beads from 'high-salt' extracts (700 mM potassium acetate) after depletion of Cdc48-aid and release from HU arrest at 37°C; chromosomal DNA digested; immunoblotting; cdc48-aid and cdc48-aid rsp5-1 cells.
Turning to B5, the binding result was “binds”.
On the same count and under the same terms, the same measure for B2: “binds”.
